# Results taken from patent publication US9738660B2, “Selective inhibitors for protein kinases and pharmaceutical composition and use thereof” (National Chiao Tung University, priority 2014, dated 2017).
# System: 40 types of protein kinases
# Experiment: Selectivity over the panel of 40 protein kinases
# Format: biochemical
# Conditions: 500 nM; inhibited = residual kinase activity less than or equal to 50%
# Excerpt: Kinase Profiler services provided by […]. (http://www.reactionbiology.com) were used to analyze the data of the 9 type-S protein kinase inhibitors against the 40 types of protein kinases.
structure (smiles),measurement,value
"CN[C@@H]1C[C@H]2O[C@@](C)([C@@H]1OC)n1c3ccccc3c3c4c(c5c6ccccc6n2c5c31)C(=O)NC4 [STU, staurosporine, reference compound]",number of types of protein kinases inhibited out of 40 tested,39
same,percentage of the 40 types of protein kinases inhibited,97.5%
